Measurements taken from article PMC9764985.
No constants are given. Whether binding was seen depends on the method and setting. In cells and extracts the contact can be indirect. Binding can be weak; no strength is given. Where a sequence is shown, tags or fusion partners need not be part of it.

B1: FtsZ of D. radiodurans, T18-tagged (protein, UniProt Q9RWN5 1-371)
chain: MQAARIRVIGLGGAGNNAVNRMIESGLEGVEFIAGNTDAQVLAKSHAEVRIQLGDRLTRGLGAGADPKVGEEAAVEDRDRIKEYLDDTDMLFITAGMGGGTGTGSAPVVAEIAREMGILTVAIVTRPFKFEGPKRMRVAEEGMSKLADRVDGMIVVNNEKLLTAVDKKVSFREAFLIADRVLYYGVKGISDVINVEGMINLDFADVRNLLANSGTVLMGIGAGRGDKMAEEAAMSAIHSPLLERGIEGARRILVNVTGGYDLSMTDANEIVEKIREATGFDDPDILFGITPDEAAGDEVRVTVIATGFGDNTYAAPLGGVVSSGRGGYDQGGYGSGLVRPVRGGQGGLGGGSSYDPKDYDIPAFLRNVGGQ
B2: FtsA of D. radiodurans, T18-tagged (protein, UniProt Q9RWN6 1-517)
chain: MRENSIIVGLDIGTTKITTVIGEVAPDGTIDIIGEGSVPSEGMKRGSVINLERATQAIKQSLHAAERVSGVRAWNVFVSVGGNHTKAMTSHGLAAIRRQQEISPPDVERAIENARAVPLDPSLEILHTIPQEYVVDGQEGIKNPVGMHGVRLEVDVHIVAGSAGPLLNLRRCVQEAGLQIEGFVLHSLASGLATLDHSEQNQTTVVVDMGGGTTDIGVFKRGNLAHSASIPIGGDHVTADLAQILKIPMEEAEKVKRHYGAAIPELADQELTLEITTASGATHAISAYELSRVIRPRVSEIYGLIRDEIDQALGPVELVAQSVVLTGGGAQLPGAVDLARERFRLPTRLGRPRGIHGLSDIVGDPAHACSVGMVLYGITQDGRVPSGLDDGGDPAGYTEYAGRHDQGYPQGGYPAPGYLTAPTGGTHVAPQGTPGSYPGPGYVVSGGQSQGQPYPPMPNTGSHSAGVPSMSGPVIGGQVVGVDPHAQVLVDGQPQRPPSGPKVSLMDRVRSLFRDWF
B3: GyrA of D. radiodurans (protein, UniProt Q9RT53 1-812)
chain: MTGIQPVDITSEVKTNFINYAMNVIVDRALPDVRDGMKPVQRRIMYAMLQEGLASNVKHAKSASVVGEVMKRYHPHGDSSIYDAMVRLGQWWNMRYTLVDPQGNFGSMDGDMAAAMRYTEARMTKVAEEILADLEKETVDLKPNYDETTTEPTVLPSAVPNLLINGASGIAVGMATNIPPHNLTEISNGLLALIDNPAITLDEMMTHVQGPDFPTGGRIAKVGIREAYATGHAGLKVRGKARIEEGKNGRTQIIISEIPYQLNKTNLLQTISAMYKAGKIPDIGALRDESDRKEPVRIVIELKRSAAGMGTLVLNQLYKYTQLQSSYTVMNLSIVNGEPRVLPLIDTMRYFLDHRRDVVTRRTVYDLRKAKERAHVLEGLLKALDHIDEVISLIRASNTGAEARDGLMARFGLSEIQAQAILDMRLQRLVGLEREKLQGEYDELQKTITRLESILGDEKLLWREIKKEIRDIRDRYGDARRSVITELEEDINKEDLIAVEDMVITMTRAGYVKRTNLTAYREQKRGGRGSSGGKLREEDANTGVFVGSTHDYLLFFTDQGRVFHEKIYDLPEAGRDAKGTHIRNLLPGLRDDENIASVLSVSGFDQPGSFIFATKSGVIKKSLITDYANITSAGLIAINLQPGDELIGVDIQQDGDDVVLATKNGQAMRFEATLVRDTGRATQGVIGIRLREGDEVVSMALVPGNDEEGELLAISECGLGKRTKVSDYPSKGRGGLGVITLDVTDKTGKLVTLAHVAGNEELMVLTEKGTVIRTRVEEVRVTGRNAQGVKVINIGDKDRVIDAFPIRKEDEL
B4: FtsE of D. radiodurans (protein, UniProt Q9RU44 1-576)
chain: MSVPAPGLRWARLQRSRDEKRPHPLFMVARRGWAMLTNEHAATISFALPPAAAPDVGPFPESGVIEFRQVTLEYPATHTLALDNLTVSVTKGEFVYLVGHSGAGKSSFMNLILKRALPTRGEVRVAGQPLSHYRGRRTPLLRRHMGTVFQDNLLLSHLNAYDNVAFALRVIGVPGREWPERVSAALRLVGLEHKKHALPMQLSLGEQQRVAIARAIVSDPPLLLADEPTGNLDPDHSREVLRVLQGVHLRGTTVVVATHARDLVETYRHRTLTLRRGKLVRDDHLGVRPVNYHFRQALLAMRANLTATLSTLTTMTLTLLTLGGVLLLTLNVNRTLERLESQVEVAAYLTPAADEELLLRTARAYPQVSQARLVSSEEVLKEMTRDYPYTREATALTGNPFPDTLRLRVARLEDSRGVAAAVEALPGVESVEYGETYVDSAVRALTAVRAVGYGMVALLLVGTLFNILNAVRVAMFARRDEISVMRLLGATRSFIRMPHLIEGLLVGGVAAVLAVTALAWGYQVLAGRLALFAPIFPVVTDWDVLWPLLIGVGLLGVLVGLVGSLFATRRYLRELE

Target: Deinococcus radiodurans FtsK (drFtsK), histidine-tagged (Deinococcus radiodurans R1)
Assay: co-IP; E. coli BL21(DE3) pLysS co-expressing histidine-tagged FtsK and a T18-tagged protein; cell extracts at log phase; immunoprecipitated with anti-polyhistidine antibodies, blotted with antibodies against the T18 domain of CyaA

| binding | Binder |
| --- | --- |
| binds | B1 |
| binds | B2 |
| no binding | B3 |
| no binding | B4 |
